# Results of single-concentration screens

Results are given as percent effect.
The record does not define 0% and 100%; most values in the screen are far below 50% and negative numbers occur (in some assays of this library far below -100).
The compounds are a random part of those screened.

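Whole-parasite assay of Trypanosoma brucei over 72 hours; the read-out is not stated. Compounds at 30 µM. Direction is inferred from retests: higher values go with stronger inhibition. Values scatter widely below zero; nearly all retest evidence comes from the higher of the two concentrations used. Size under these conditions: about 64,000 compounds, about 940 of them at 50% or above in at least one test.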

Compound	Percent Effect
CCc1nc(CNCC2CCCN2c2cccnn2)cs1 (stereo not shown)	4.558
CN(C1CCCCC1)S(=O)(=O)NC1CCCN(c2ncccn2)C1 (stereo not shown)	-16.39
Br.Cc1ccccc1OC1CCN(CC(=O)Nc2ccn(C)n2)CC1	12.28
[H][C@@]12CC(=O)N(Cc3ccncc3)[C@@]1([H])CCN2Cc1cnn(C)c1	-17.37
CCC(NC(=O)C1CCN(S(C)(=O)=O)CC1)c1ccc(C)cc1 (stereo not shown)	-4.658
COCCN1CCN(CCS(=O)(=O)c2cccc(OC)c2)CC1	-9.149
O=C(O)c1ccc(C2CCCN(Cc3ccc(-c4cc[nH]n4)o3)C2)cc1 (stereo not shown)	-22.9
Cc1ncc(C(=O)N2CCCN(Cc3ccccc3F)CC2)c(O)n1	-0.8196
COCCCN(Cc1ccccn1)Cc1ccnn1C1CCCCO1.O=C(O)CC(O)(CC(=O)O)C(=O)O (stereo not shown)	-29.15
O=C(Cn1nc(-c2ccc(F)cc2)oc1=O)NCC1CCCO1 (stereo not shown)	-23.51
CCCC(NC(=O)c1cc(C)c(F)cc1F)c1nnn[nH]1 (stereo not shown)	11.01
CNC(=O)c1cccc(CNC(C)c2cc(Cl)ccc2OC)c1 (stereo not shown)	-17.65
O=C(c1ccnc(-n2cnnc2)c1)N1CCCC2(CCNC2)C1 (stereo not shown)	-7.628
O=C1COc2ccccc2N1CCCn1cnnn1	15.14
O=C(CN1CCCCC1C1OCCO1)Nc1ccc(F)c(F)c1 (stereo not shown)	20.01
COCCC(C)NCc1ccccc1-n1ccnc1 (stereo not shown)	-12.52
CCOCC1CN(C(=O)c2ccncc2)Cc2nn(C)cc21.O=C(O)C(F)(F)F (stereo not shown)	5.247
Cc1cccnc1N1CCN(C(=O)CCc2cn3ccccc3n2)CC1	-45.76
CCc1nsc(N2CCCN(CC(=O)N(C)C3CC3)CC2)n1	-74.57
CS(=O)(=O)NCc1cc(-c2cc(F)cc(F)c2)nc(N2CCOCC2)n1	10.81
CCN1CCc2nc(N3CCOCC3)nc(NC(C)C)c2C1	-20.31
Cc1ccccc1C(=O)NC(C)CN1CCOC1=O (stereo not shown)	-56.06
CN(C)C(=O)Cc1ccc(NCc2nccn2C)cc1	-49.73
[H][C@@]12CCN(C(=O)c3cnccn3)C[C@@]1([H])O[C@@H](C)C2	-49.77
COc1ccc(-c2nccnc2C2CCN(C(C)=O)CC2)cc1	-19.16
O=C(NCCCNC(=O)c1cccc(O)c1)Nc1ccc(F)cc1F	24.2
COC(=O)c1ccc(C2SCC(=O)Nc3ccsc32)cc1 (stereo not shown)	-15.9
O=C(c1cn(-c2cc(N3CCSCC3)ncn2)cn1)N1CCSCC1	-54.01
CC(C)C(=O)N1CCOC[C@H](Oc2ccc(C(F)(F)F)cc2)C1	-4.861
Fc1ccccc1Oc1nccnc1C1CCN(C2CCOCC2)CC1	-42.25
Cc1nc(-c2cccc(C(=O)O)c2)cc(C2CCCN(C(C)C)C2)n1 (stereo not shown)	-9.04
Cc1nc(C2CCN(C)CC2)cc(N2CCOc3ccc(Cl)cc3C2)n1	-18.38
O=C(Cc1ccsc1)N1Cc2nc(CN3CCCCC3)oc2C1.O=C(O)C(F)(F)F	-85.36
COc1nccc(N2CC[C@@H](N3CCC(O)CC3)[C@H](O)C2)c1C#N	-42.52
Cn1cc(C2CCCN2C(=O)CCCc2ccccn2)cn1 (stereo not shown)	-11.72
CCC1c2ccccc2CCN1CCCS(C)(=O)=O (stereo not shown)	-47.07
CCc1cccc(OC2CN(C(=O)[C@@H](N)CCSC)C2)c1	-46.23
O=C(COC1CCCCC1)Nc1ccn(CCc2ccncc2)n1	-21.77
O=C(O)C(F)(F)F.[H][C@@]12COC[C@]1(CN1CCOCC1)CN(S(=O)(=O)c1ccccc1)C2	-63.67
CNC(=O)[C@@H](c1ccccc1OC)N1CCC[C@H]1C(=O)N1CC[C@@H](O)C1.Cl	18.69
O=C(O)c1cccnc1CN1CCCCC1CCc1ccccn1 (stereo not shown)	1.263
CCCSc1nn(CCN(C)C)c2nc3sc(C)c(CC)c3c(=O)n12	-15.46
CCCc1nnc([C@H]2CCN(Cc3ncc[nH]3)C2)o1	-8.666
COCCNc1ncc(-c2onc(C)c2C)c(-c2ccco2)n1	-8.28
CC(Cn1cccn1)NC(=O)N(C)Cc1ccsc1 (stereo not shown)	-12.68

Measurements from “University of Dundee, Small-Polar-MMV Screening Library” (2021), ChEMBL document CHEMBL3988442.